No constants are given. Whether binding was seen depends on the method and setting. Some binding calls cover weakened binding; strength is not graded here.
Target: T1, DCLK1 isoform 1 purified protein (human) (UniProt O15075)
T1 sequence (looked up): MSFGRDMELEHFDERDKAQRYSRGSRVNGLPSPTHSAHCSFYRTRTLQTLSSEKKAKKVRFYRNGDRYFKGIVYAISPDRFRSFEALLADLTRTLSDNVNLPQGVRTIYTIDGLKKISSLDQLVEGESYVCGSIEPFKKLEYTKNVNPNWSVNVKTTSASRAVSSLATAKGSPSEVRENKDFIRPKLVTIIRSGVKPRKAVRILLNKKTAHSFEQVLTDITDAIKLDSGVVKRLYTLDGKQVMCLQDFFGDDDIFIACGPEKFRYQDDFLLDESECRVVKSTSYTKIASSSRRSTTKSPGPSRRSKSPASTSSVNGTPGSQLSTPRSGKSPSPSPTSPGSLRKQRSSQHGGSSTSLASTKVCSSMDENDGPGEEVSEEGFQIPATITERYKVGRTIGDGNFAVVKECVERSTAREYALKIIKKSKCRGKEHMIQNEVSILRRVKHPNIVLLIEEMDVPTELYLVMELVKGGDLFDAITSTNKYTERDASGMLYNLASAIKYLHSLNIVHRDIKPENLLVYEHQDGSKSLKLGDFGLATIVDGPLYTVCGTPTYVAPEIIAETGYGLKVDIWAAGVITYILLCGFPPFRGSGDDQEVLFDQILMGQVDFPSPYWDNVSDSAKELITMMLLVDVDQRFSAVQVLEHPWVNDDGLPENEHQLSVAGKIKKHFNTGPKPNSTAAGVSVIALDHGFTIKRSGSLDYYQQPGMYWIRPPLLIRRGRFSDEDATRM
Test: ELISA on purified protein

B1: CBT-15G monoclonal antibody (antibody, V domains shown)
VH: EVQLQQSGTALARPGASVKMSCKASGYSFTSYWMHWVKQRPGQGLEWIGAIYPGKSDTSYNQKFKGKAKLTAVTSASTAYMELSSLTNEDSAVYYCTRYGKGAMDYWGQGTSVTVSS
VL: DIVLTQSHKFMSTSVGDRVTITCKASQDVNTAVAWYQKKPGQSPKLLIYWASTRLTGVPDRFTGSGSGTDYTLTISSVQAEDLALYYCQQHYSTPYTFGGGTKLEIK
  binding: binds
